# Results as given in the supplement of paper PMC8728848.
# This is one part of the list.
# Experiments:
# Assay in all cases: glycan array binding signal (z-score within array); higher = stronger binding
# Details in all cases: glycan notation: IUPAC condensed, linker removed
# [1] = system: Neu5Ac(a2-6)Gal(b1-4)GlcNAc(b1-2)Man(a1-3)[Neu5Ac(a2-6)Gal(b1-4)GlcNAc(b1-2)Man(a1-6)]Man(b1-4)GlcNAc(b1-4)GlcNAc
# In short: (§1)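 The binding signal is a Z-score computed within each array and averaged over linkers. Arrays of the same protein sequence at different concentrations or buffers were also averaged together. Data originate from 3228 arrays in the Consortium for Functional Glycomics database, kept only where the protein sequence was available.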
# [2] = system: Neu5Ac(a2-6)Gal(b1-4)GlcNAc(b1-2)Man(a1-3)[Neu5Ac(a2-6)Gal(b1-4)GlcNAc(b1-2)Man(a1-6)]Man(b1-4)GlcNAc(b1-4)[Fuc(a1-6)]GlcNAc
# In short: as §1
# [3] = system: Neu5Ac(a2-6)Gal(b1-4)GlcNAc(b1-2)Man(a1-6)Man(b1-4)GlcNAc(b1-4)GlcNAc
# In short: as §1
# [4] = system: Neu5Ac(a2-6)Gal(b1-4)GlcNAc(b1-2)Man(a1-6)[Gal(b1-4)GlcNAc(b1-2)Man(a1-3)]Man(b1-4)GlcNAc(b1-4)GlcNAc
# In short: as §1
# [5] = system: Neu5Ac(a2-6)Gal(b1-4)GlcNAc(b1-2)Man(a1-6)[GlcNAc(b1-2)Man(a1-3)]Man(b1-4)GlcNAc(b1-4)GlcNAc
# In short: as §1
# [6] = system: Neu5Ac(a2-6)Gal(b1-4)GlcNAc(b1-2)Man(a1-6)[Man(a1-3)]Man(b1-4)GlcNAc(b1-4)GlcNAc
# In short: as §1
# [7] = system: Neu5Ac(a2-6)Gal(b1-4)GlcNAc(b1-2)Man
# In short: as §1
# [8] = system: Neu5Ac(a2-6)Gal(b1-4)GlcNAc(b1-2)[Neu5Ac(a2-6)Gal(b1-4)GlcNAc(b1-4)]Man(a1-3)[GlcNAc(b1-4)][Neu5Ac(a2-6)Gal(b1-4)GlcNAc(b1-2)[Neu5Ac(a2-6)Gal(b1-4)GlcNAc(b1-6)]Man(a1-6)]Man(b1-4)GlcNAc(b1-4)GlcNAc
# In short: as §1
# [9] = system: Neu5Ac(a2-6)Gal(b1-4)GlcNAc(b1-2)[Neu5Ac(a2-6)Gal(b1-4)GlcNAc(b1-4)]Man(a1-3)[GlcNAc(b1-4)][Neu5Ac(a2-6)Gal(b1-4)GlcNAc(b1-4)Man(a1-6)]Man(b1-4)GlcNAc(b1-4)GlcNAc
# In short: as §1
# [10] = system: Neu5Ac(a2-6)Gal(b1-4)GlcNAc(b1-2)[Neu5Ac(a2-6)Gal(b1-4)GlcNAc(b1-6)]Man(a1-6)[Neu5Ac(a2-6)Gal(b1-4)GlcNAc(b1-2)Man(a1-3)][GlcNAc(b1-4)]Man(b1-4)GlcNAc(b1-4)GlcNAc
# In short: as §1
# [11] = system: Neu5Ac(a2-6)Gal(b1-4)GlcNAc(b1-3)Gal(b1-3)GlcNAc
# In short: as §1
# [12] = system: Neu5Ac(a2-6)Gal(b1-4)GlcNAc(b1-3)Gal(b1-4)GlcNAc(b1-2)Man(a1-3)[Neu5Ac(a2-6)Gal(b1-4)GlcNAc(b1-3)Gal(b1-4)GlcNAc(b1-2)Man(a1-6)]GalNAc
# In short: as §1
# [13] = system: Neu5Ac(a2-6)Gal(b1-4)GlcNAc(b1-3)Gal(b1-4)GlcNAc(b1-3)Gal(b1-4)GlcNAc(b1-2)Man(a1-3)[Neu5Ac(a2-6)Gal(b1-4)GlcNAc(b1-3)Gal(b1-4)GlcNAc(b1-3)Gal(b1-4)GlcNAc(b1-2)Man(a1-6)]GalNAc
# In short: as §1
# [14] = system: Neu5Ac(a2-6)Gal(b1-4)GlcNAc(b1-3)Gal(b1-4)GlcNAc(b1-3)Gal(b1-4)GlcNAc
# In short: as §1
# [15] = system: Neu5Ac(a2-6)Gal(b1-4)GlcNAc(b1-3)Gal(b1-4)GlcNAc(b1-3)GalNAc
# In short: as §1
# [16] = system: Neu5Ac(a2-6)Gal(b1-4)GlcNAc(b1-3)Gal(b1-4)GlcNAc(b1-3)[Neu5Ac(a2-6)Gal(b1-4)GlcNAc(b1-3)Gal(b1-4)GlcNAc(b1-6)]GalNAc
# In short: as §1
# [17] = system: Neu5Ac(a2-6)Gal(b1-4)GlcNAc(b1-3)Gal(b1-4)GlcNAc(b1-6)[Gal(b1-3)]GalNAc
# In short: as §1
# [18] = system: Neu5Ac(a2-6)Gal(b1-4)GlcNAc(b1-3)Gal(b1-4)GlcNAc
# In short: as §1
# [19] = system: Neu5Ac(a2-6)Gal(b1-4)GlcNAc(b1-3)Gal(b1-4)[Fuc(a1-3)]GlcNAc(b1-3)Gal(b1-4)[Fuc(a1-3)]GlcNAc
# In short: as §1
# [20] = system: Neu5Ac(a2-6)Gal(b1-4)GlcNAc(b1-3)GalNAc
# In short: as §1
# [21] = system: Neu5Ac(a2-6)Gal(b1-4)GlcNAc(b1-3)[Neu5Ac(a2-6)Gal(b1-4)GlcNAc(b1-6)]GalNAc
# In short: as §1
# [22] = system: Neu5Ac(a2-6)Gal(b1-4)GlcNAc(b1-6)GalNAc
# In short: as §1
# [23] = system: Neu5Ac(a2-6)Gal(b1-4)GlcNAc(b1-6)[Gal(b1-3)GlcNAc(b1-3)]Gal(b1-4)Glc
# In short: as §1
# [24] = system: Neu5Ac(a2-6)Gal(b1-4)GlcNAc(b1-6)[Gal(b1-3)]GalNAc
# In short: as §1
# [25] = system: Neu5Ac(a2-6)Gal(b1-4)GlcNAc6S
# In short: as §1
# [26] = system: Neu5Ac(a2-6)Gal(b1-4)GlcNAc
# In short: as §1
# Neu5Ac(a2-6)Gal(b1-4)Glc = system: Neu5Ac(a2-6)Gal(b1-4)Glc
# In short: as §1
# [27] = system: Neu5Ac(a2-6)GalNAc(b1-4)GlcNAc6S
# In short: as §1
# [28] = system: Neu5Ac(a2-6)GalNAc(b1-4)GlcNAc
# In short: as §1
# Neu5Ac(a2-6)GalNAc = system: Neu5Ac(a2-6)GalNAc
# In short: as §1
# Neu5Ac(a2-6)Gal = system: Neu5Ac(a2-6)Gal
# In short: as §1
# [29] = system: Neu5Ac(a2-6)GlcNAc(b1-4)GlcNAc(b1-4)GlcNAc
# In short: as §1
substance,measurement,setting,value
MpAFP RI GFP (Marinomonas primoryensis),glycan array binding signal (z-score),[1],0.414
same,glycan array binding signal (z-score),[2],2.72
same,glycan array binding signal (z-score),[3],-0.413
same,glycan array binding signal (z-score),[4],-0.456
same,glycan array binding signal (z-score),[5],-0.058
same,glycan array binding signal (z-score),[6],-0.424
same,glycan array binding signal (z-score),[7],-0.312
same,glycan array binding signal (z-score),[8],-0.411
same,glycan array binding signal (z-score),[9],0.092
same,glycan array binding signal (z-score),[10],-0.289
same,glycan array binding signal (z-score),[11],-0.701
same,glycan array binding signal (z-score),[12],-0.261
same,glycan array binding signal (z-score),[13],3.43
same,glycan array binding signal (z-score),[14],1.44
same,glycan array binding signal (z-score),[15],-0.467
same,glycan array binding signal (z-score),[16],1.36
same,glycan array binding signal (z-score),[17],-0.466
same,glycan array binding signal (z-score),[18],-0.758
same,glycan array binding signal (z-score),[19],-0.163
same,glycan array binding signal (z-score),[20],-0.218
same,glycan array binding signal (z-score),[21],-0.593
same,glycan array binding signal (z-score),[22],-0.176
same,glycan array binding signal (z-score),[23],-0.159
same,glycan array binding signal (z-score),[24],-0.306
same,glycan array binding signal (z-score),[25],-0.569
same,glycan array binding signal (z-score),[26],-0.671
same,glycan array binding signal (z-score),Neu5Ac(a2-6)Gal(b1-4)Glc,-0.481
same,glycan array binding signal (z-score),[27],-0.16
same,glycan array binding signal (z-score),[28],-0.698
same,glycan array binding signal (z-score),Neu5Ac(a2-6)GalNAc,-0.357
same,glycan array binding signal (z-score),Neu5Ac(a2-6)Gal,-0.546
same,glycan array binding signal (z-score),[29],0.806

# Shown as tab-separated lines: entries from further up
substance	measurement	setting	value
MpAFP RI GFP (Marinomonas primoryensis)	glycan array binding signal (z-score)	[26]	-0.671
same	glycan array binding signal (z-score)	Neu5Ac(a2-6)Gal(b1-4)Glc	-0.481
